Results published in US12006513B2, “Methods for the long-term expansion of granulocyte-macrophage progenitors and applications thereof” (University of Southern California, priority 2018, dated 2024).
At least one structure is not confirmed: it was looked up by name or label, or the drawing left a doubt.

Test system: bone marrow cells isolated from adult C57BL/6 mice
Experiment: Small molecule library screens on bone marrow cells in serum free N2B27 medium
Format: cell-based, mouse
Conditions: first screen, 96-well plates

OCCn1cc(-c2ccc3c(c2)CC/C3=N\O)c(-c2ccncc2)n1 [GDC-0879]
formation of colonies containing uniform bright, small and round-shaped cells: significantly promote the formation of colonies
